The results in this text go back to PubChem BioAssay AID1487 (National Center for Advancing Translational Sciences (NCATS), 2009).

The nature of this test: qHTS Assay for Modulators of Lamin A Splicing. The following applies: HeLa LMNA splicing GFP/RFP minigene ratio, 48 h. Put shortly: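 S3 HeLa cells stably expressing lamin A-EGFP splicing minigene plus DsRed2, 600 cells/well, 48 h compound exposure at 37C. Laser-scanning cytometry; analysed as GFP (500-530 nm)/RFP (575-640 nm) total intensity ratio; 0.5% DMSO vehicle.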
(Quantitative high-throughput screening tests each substance at several concentrations.)

The mark [1] stands for this setting: measured here: GFP splicing reporter channel.
[2] abbreviates: measured here: RFP viability control channel.

The structures appear in SMILES notation. Values joined by “and” are separate entries in the source; they are usually repeats but may differ in a detail not shown here. Identical values can stand only once. This is one part of the list. These are further read-outs of the screen, such as a control signal, another cell line or another target. No call is given for them. Most of these compounds were active or inconclusive in the main read-out, so they are no random draw. Words in brackets tell the shape of the fitted curve; partial curves, single points and poor fits give uncertain potencies.

Turning to `CCCCOc1ccc(-c2nc(=S)[nH][nH]2)cc1`, the half-maximal activity concentration (AC50) under setting [1] was 31.6 µM [rising, single point] and the AC50 under setting [2] was 35.5 µM [rising, single point]. Take `Cc1occc1C(=O)NNC(=O)C1CCCC1`: the AC50 under setting [2] is 3.55 µM [falling, full curve, poor fit]. Same read-out and setting: the same measure for `CCOc1ccccc1/C=C/c1onc(C)c1S(=O)(=O)N1CCC(C(=O)N2CCCCC2)CC1`: 0.0398 µM [falling, full curve, poor fit]. As to `CSc1ncccc1C(=O)Nc1nc2c(C)cccc2s1`, the AC50 under setting [1] is 11.2 µM [rising, single point] and the AC50 under setting [2] is 12.6 µM [rising, single point]. In the case of `Cc1nc2ccccc2nc1SCC(=O)c1ccccc1`, under setting [2], the AC50 is 8.91 µM [rising, single point]. On to `Cc1ccccc1-c1noc(CSc2nc(-c3ccc(F)cc3)cc(=O)[nH]2)n1`, for which the AC50 by setting is: under setting [1], 7.08 µM [falling, full curve, poor fit]; under setting [2], 3.98 µM [falling, full curve, poor fit]. Consider `Cc1ccc(NC(=O)CCCc2ccccc2)nc1`, for which the AC50 under setting [1] is 4.47 µM [rising, partial curve, poor fit]. Take `O=S1(=O)CCN2C(Cc3ccc(SC(F)F)cc3)=CSC2=N1`: the AC50 under setting [2] was 1.41 µM [rising, partial curve]. As for `COc1ccc(NC(=S)N(CCCN2CCCC2)Cc2cccs2)cc1`, the AC50 is 2.82 µM [rising, full curve, poor fit] under setting [1] and 3.98 µM [rising, partial curve] under setting [2]. As for `CCN(CC)c1ccc(NC2=C(Cl)C(=O)c3ccccc3C2=O)cc1`, the AC50 by setting is: under setting [1], 35.5 µM [falling, single point]; under setting [2], 3.98 µM [rising, single point]. Take `CCc1ccccc1NS(=O)(=O)c1ccc2[nH]cc(C(=O)NC3CCCC3)c(=O)c2c1`: the AC50 under setting [2] was 31.6 µM [rising, single point]. For the compound `COC(=O)c1ccccc1NC(=O)CSc1ccccn1`, the AC50 under setting [2] is 0.501 µM [falling, full curve, poor fit].

In the case of `CCOc1c2ccc(C(=O)NC3CCCc4ccccc43)cc2nn1CC` (stereo unspecified), the AC50 under setting [2] was 20 µM [rising, single point]. The same measure, in the same setting: the same measure for `COc1c(Br)cc(C(N)=O)cc1OCc1ccccc1`: 31.6 µM [falling, single point]. On to `CCOc1ccc(C(=O)NCCc2sc(-c3cccc(F)c3)nc2C)cc1OCC`, for which the AC50 by setting is: under setting [1], 35.5 µM [falling, partial curve, poor fit]; under setting [2], 0.0251 µM [falling, full curve]. With `CCOC(=O)CC(=O)CSc1nc(-c2ccccc2)cc(-c2ccc(Cl)cc2)c1C#N`, the AC50 under setting [1] is 35.5 µM [rising, single point]. For `COc1ccc(OC)c(-c2csc(NC(=O)CSc3ccccc3)n2)c1`, the AC50 was 12.6 µM [rising, single point] under setting [1] and 31.6 µM [rising, single point] under setting [2]. Regarding `Cc1ccc(-n2nc3ccc(NC(=O)c4cccc([N+](=O)[O-])c4C)cc3n2)cc1`, the AC50 under setting [2] was 5.01 µM [rising, single point].

Turning to `COc1ccc(OC)c(NS(=O)(=O)c2ccc(SC)cc2)c1`, the half-maximal activity concentration (AC50) under setting [2] is 20 µM [rising, single point]. `Cc1onc(-c2ccccc2Cl)c1C(=O)Nc1ccc(F)c(F)c1`: the AC50 under setting [1] is 35.5 µM [rising, single point].

In the case of `Cn1c(N2CCOCC2)c(/C=N/O)c2ccccc21`, the AC50 under setting [2] is 0.0355 µM [rising, full curve, poor fit]. Regarding `Cc1cc(C)cc(NC(=O)c2ccc(CSc3nnnn3C)cc2)c1`, the AC50 was 35.5 µM [rising, single point] under setting [1] and 35.5 µM [rising, single point] under setting [2]. Consider `CCOC(=O)C1CCN(S(=O)(=O)c2ccc(CC)cc2)CC1`, for which the AC50 under setting [2] is 5.62 µM [rising, single point]. For the compound `CC(=O)Nc1ccc(NC(=O)C2CCCN2C(=O)Nc2ccccc2[N+](=O)[O-])cc1` (stereo unspecified), the concentration at half-maximal activity (AC50) was 7.94 µM [rising, partial curve] under setting [1] and 7.08 µM [rising, partial curve] under setting [2]. Turning to `Clc1ccc(Cn2ncc3c(NCc4ccccc4)ncnc32)cc1`, the AC50 under setting [2] was 12.6 µM [rising, partial curve].

As to `Cc1ccccc1C(OCCN(C)C)c1ccccc1` (stereo unspecified), the AC50 under setting [2] is 44.7 nM [falling, full curve, poor fit] and 6.31 µM [falling, single point]. `O=C(NC(=S)Nc1ccc(S(=O)(=O)N2CCCC2)cc1)c1cccs1`: the concentration at half-maximal activity (AC50) was 12.6 µM [rising, single point] under setting [1] and 12.6 µM [rising, partial curve] under setting [2]. For the compound `CCN(c1ccccc1)S(=O)(=O)c1cc(C(=O)Nc2cccc(Cl)c2)ccc1F`, under setting [2], the AC50 is 22.4 µM [rising, single point]. Regarding `Cc1cc(SCC(=O)OC/C(O)=C(\C#N)c2nc3ccccc3[nH]2)c(C)cc1Br`, the AC50 is 12.6 µM [falling, partial curve, poor fit] under setting [1] and 14.1 µM [falling, partial curve, poor fit] under setting [2]. `Cc1cc(Cl)c(S(=O)(=O)NC2CCCCC2)cc1OCC(=O)Nc1nncs1`: the AC50 is 4.47 µM [rising, single point] under setting [1] and 3.55 µM [rising, full curve] under setting [2]. As to `CCOC(=O)c1cc(NC(=O)Nc2nccs2)c(C)nc1C`, the AC50 under setting [1] was 17.8 µM [rising, partial curve, poor fit]. In the case of `Cc1cc(C)c(NS(=O)(=O)c2ccc3c(c2)NC(=O)CCS3)c(C)c1`, the AC50 under setting [1] was 0.355 µM [rising, single point]. Take `Cc1c(I)c(=O)n(-c2ccccc2)n1C`: the AC50 under setting [1] was 12.6 µM [falling, partial curve, poor fit].

Turning to `Cc1cccc(CNc2ccnc(-c3ccccc3C(F)(F)F)n2)c1`, the AC50 was 15.8 µM [falling, partial curve] under setting [1] and 14.1 µM [falling, partial curve] under setting [2].

Take `Cc1ccccc1OCCn1cnc2c(N)ncnc21`: the concentration at half-maximal activity (AC50) under setting [2] is 14.1 µM [rising, partial curve]. Take `COc1ccccc1N1CCN(C[C@@H](O)COc2cccc3ccccc23)CC1`: the AC50 under setting [1] was 0.398 µM [falling, full curve] and the AC50 under setting [2] was 0.316 µM [falling, full curve, poor fit].

As to `Cc1ccc2c(CSc3nc4ccccc4c(=O)n3CCCO)cc(=O)oc2c1C`, the AC50 is 14.1 µM [rising, partial curve, poor fit] under setting [1] and 17.8 µM [rising, single point] under setting [2].

Turning to `CC(C)OCCCNC(=O)c1c2c(nc3ccccc13)C(=O)N(C1CCCCC1)C2`, under setting [2], the AC50 was 0.0447 µM [rising, full curve, poor fit]. As for `BrC(=C\c1ccccc1)/C=N/n1cnnc1`, the AC50 under setting [1] was 2.82 µM [falling, full curve, poor fit].

For the compound `CCc1cc2c(=O)c(-c3ccc4c(c3)OCCO4)coc2cc1OS(C)(=O)=O`, under setting [2], the AC50 was 10 µM [rising, partial curve, poor fit]. As for `COc1ccc(CCNC(=O)CSc2ncnc3c2oc2ccccc23)cc1OC`, the AC50 under setting [1] was 5.62 µM [rising, single point]. In the case of `Cc1cc(C)cc(Nc2ncnc3sc4c(c23)CCCC4)c1`, the AC50 is 0.708 µM [rising, full curve, poor fit] under setting [1] and 35.5 µM [rising, single point] under setting [2].

As for `O=C(C1=C(O)/C(=C/c2ccc(O)cc2)CCC1)C(F)(F)F`, the AC50 under setting [2] is 35.5 µM [rising, single point]. For `CCOC(=O)c1cc(-c2ccccc2)n(CC(=O)Nc2cc(Cl)c(OC)cc2OC)c1C`, the AC50 is 35.5 µM [falling, single point] under setting [1] and 35.5 µM [falling, single point] under setting [2]. For the compound `C=C(C)CN=C1SC(C(=O)Nc2sc3c(c2C(=O)OC)CCC3)C(N)=C1C(N)=O` (stereo unspecified), the AC50 is 0.0891 µM [rising, partial curve, poor fit] under setting [1] and 4.47 µM [rising, partial curve] under setting [2].

With `C=CCn1c(SCC(N)=O)nnc1-c1ccccc1O`, the AC50 under setting [2] is 11.2 µM [rising, partial curve, poor fit].

As to `COc1ccc(-n2sc3c(c2=S)-c2cc(OC)ccc2NC3(C)C)cc1`, the concentration at half-maximal activity (AC50) under setting [2] is 35.5 µM [rising, single point].

On to `CC(C)C(c1nnnn1Cc1ccccc1)N1CCN(Cc2ccc3c(c2)OCO3)CC1` (stereo unspecified), for which the AC50 by setting is: under setting [1], 11.2 µM [rising, partial curve, poor fit]; under setting [2], 11.2 µM [rising, partial curve, poor fit].

On to `Cc1cc(C)nc(SCc2ccc(C(=O)NNC(=O)Nc3cccc(Cl)c3)cc2)n1`, for which the AC50 under setting [2] is 11.2 µM [rising, partial curve].

Regarding `O=C(N/N=C/C(Br)=C\c1ccccc1)c1n[nH]c2c1CCC2`, the concentration at half-maximal activity (AC50) reads like this: under setting [1], 6.31 µM [falling, partial curve, poor fit]; under setting [2], 2.51 µM [falling, partial curve]. Turning to `CC(c1nnc(Sc2nnnn2-c2ccccc2)n1-c1ccc(F)cc1)N(C)C` (stereo unspecified), the AC50 under setting [2] was 10 µM [rising, partial curve]. As for `O=C(Nc1ccc2ccccc2c1)c1cn(-c2ccccc2)nc1-c1cccs1`, under setting [1], the AC50 is 0.02 µM [rising, partial curve]. Turning to `O=C(NCC1CCCO1)c1cc(S(=O)(=O)Nc2ccc(Br)cc2)ccc1Cl` (stereo unspecified), under setting [2], the AC50 is 15.8 µM [rising, partial curve]. Same read-out and setting: the same measure for `CCc1nc(SCc2nc3ccccc3[nH]2)c2oc3ccccc3c2n1`: 35.5 µM [rising, single point]; for `Cc1cc(C(=O)CSc2ccc(Cl)cc2)cc(C)c1OC(=S)N(C)C`: 12.6 µM [rising, single point]; for `CCOC(=O)c1sc(=NC(=O)c2ccc(C)cc2)n(C)c1C`: 8.91 µM [falling, partial curve].

A word on the AC50: it is the concentration at which the activity in the assay is half-maximal.
